# Experimental data reported in the supplement of paper PMC11438910.
# This is one part of the list. Most of these values are background signal.
# B1: 4-173.2 (protein)
# chain 1: QLQLQESGPGLVKPSETLSLTCAVSGGSINSNYWSWIRQPPGKGLDWIGRISGSGGSTDYNPSLKSRVTISTDTSKTQFSLKLRSVTAADTAVYYCGRGSYQIDYWGQGILVTVSS
# chain 2: QAALTQPPSMSGSPGQSVTISCTGTSSDIGGYNRVSWYQQYPGKAPKLMIYEVSKRPSGVSDRFSGSKSGNTASLTISGLQAADEADYYCSSYAGSKALFGGGTRLTVL
# Tests used:
# Assay in all cases: fluorescence intensity of antibody binding to polysaccharide-coupled beads; higher = stronger binding
# [1] = target: pneumococcal polysaccharide Pn16F
# [2] = target: pneumococcal polysaccharide Pn17A
# [3] = target: pneumococcal polysaccharide Pn17F
# [4] = target: pneumococcal polysaccharide Pn18A
# [5] = target: pneumococcal polysaccharide Pn18B
# [6] = target: pneumococcal polysaccharide Pn18C
# [7] = target: pneumococcal polysaccharide Pn18F
# [8] = target: pneumococcal polysaccharide Pn19A
# [9] = target: pneumococcal polysaccharide Pn19B
# [10] = target: pneumococcal polysaccharide Pn19C
# [11] = target: pneumococcal polysaccharide Pn19F
# [12] = target: pneumococcal polysaccharide Pn2
# [13] = antibody concentration 81.7561 ng/mL
# [14] = antibody concentration 437.17 ng/mL
# [15] = antibody concentration 2337.65 ng/mL
# [16] = antibody concentration 12500 ng/mL
# [17] = antibody concentration 0.1 ng/mL
# [18] = antibody concentration 0.534724 ng/mL
# [19] = antibody concentration 2.8593 ng/mL
# [20] = antibody concentration 15.2894 ng/mL
binder,measurement,setting,value
B1,fluorescence intensity,[1]; [13],25.2 MFI
same,fluorescence intensity,[1]; [14],24 MFI
same,fluorescence intensity,[1]; [15],31.8 MFI
same,fluorescence intensity,[1]; [16],48.5 MFI
same,fluorescence intensity,[2]; [17],21 MFI
same,fluorescence intensity,[2]; [18],21.2 MFI
same,fluorescence intensity,[2]; [19],21.5 MFI
same,fluorescence intensity,[2]; [20],20.5 MFI
same,fluorescence intensity,[2]; [13],21.5 MFI
same,fluorescence intensity,[2]; [14],21 MFI
same,fluorescence intensity,[2]; [15],23 MFI
same,fluorescence intensity,[2]; [16],29.5 MFI
same,fluorescence intensity,[3]; [17],25.5 MFI
same,fluorescence intensity,[3]; [18],26 MFI
same,fluorescence intensity,[3]; [19],26 MFI
same,fluorescence intensity,[3]; [20],26.8 MFI
same,fluorescence intensity,[3]; [13],24 MFI
same,fluorescence intensity,[3]; [14],28.5 MFI
same,fluorescence intensity,[3]; [15],27 MFI
same,fluorescence intensity,[3]; [16],36.5 MFI
same,fluorescence intensity,[4]; [17],23.5 MFI
same,fluorescence intensity,[4]; [18],22.5 MFI
same,fluorescence intensity,[4]; [19],24.5 MFI
same,fluorescence intensity,[4]; [20],23.8 MFI
same,fluorescence intensity,[4]; [13],27 MFI
same,fluorescence intensity,[4]; [14],23.5 MFI
same,fluorescence intensity,[4]; [15],26.8 MFI
same,fluorescence intensity,[4]; [16],38.5 MFI
same,fluorescence intensity,[5]; [17],30.5 MFI
same,fluorescence intensity,[5]; [18],31 MFI
same,fluorescence intensity,[5]; [19],29.5 MFI
same,fluorescence intensity,[5]; [20],31 MFI
same,fluorescence intensity,[5]; [13],29.8 MFI
same,fluorescence intensity,[5]; [14],33 MFI
same,fluorescence intensity,[5]; [15],35.5 MFI
same,fluorescence intensity,[5]; [16],52.5 MFI
same,fluorescence intensity,[6]; [17],20.5 MFI
same,fluorescence intensity,[6]; [18],20.2 MFI
same,fluorescence intensity,[6]; [19],20 MFI
same,fluorescence intensity,[6]; [20],18.5 MFI
same,fluorescence intensity,[6]; [13],17.5 MFI
same,fluorescence intensity,[6]; [14],22.5 MFI
same,fluorescence intensity,[6]; [15],26.2 MFI
same,fluorescence intensity,[6]; [16],37 MFI
same,fluorescence intensity,[7]; [17],23 MFI
same,fluorescence intensity,[7]; [18],22.5 MFI
same,fluorescence intensity,[7]; [19],24.5 MFI
same,fluorescence intensity,[7]; [20],21.5 MFI
same,fluorescence intensity,[7]; [13],22.5 MFI
same,fluorescence intensity,[7]; [14],25 MFI
same,fluorescence intensity,[7]; [15],31 MFI
same,fluorescence intensity,[7]; [16],43.5 MFI
same,fluorescence intensity,[8]; [17],19 MFI
same,fluorescence intensity,[8]; [18],18 MFI
same,fluorescence intensity,[8]; [19],17 MFI
same,fluorescence intensity,[8]; [20],19 MFI
same,fluorescence intensity,[8]; [13],18.5 MFI
same,fluorescence intensity,[8]; [14],20 MFI
same,fluorescence intensity,[8]; [15],19.5 MFI
same,fluorescence intensity,[8]; [16],32.5 MFI
same,fluorescence intensity,[9]; [17],30 MFI
same,fluorescence intensity,[9]; [18],31 MFI
same,fluorescence intensity,[9]; [19],29 MFI
same,fluorescence intensity,[9]; [20],29 MFI
same,fluorescence intensity,[9]; [13],29.5 MFI
same,fluorescence intensity,[9]; [14],30.5 MFI
same,fluorescence intensity,[9]; [15],48 MFI
same,fluorescence intensity,[9]; [16],295 MFI
same,fluorescence intensity,[10]; [17],29 MFI
same,fluorescence intensity,[10]; [18],26.2 MFI
same,fluorescence intensity,[10]; [19],26 MFI
same,fluorescence intensity,[10]; [20],25 MFI
same,fluorescence intensity,[10]; [13],25.8 MFI
same,fluorescence intensity,[10]; [14],25 MFI
same,fluorescence intensity,[10]; [15],41.8 MFI
same,fluorescence intensity,[10]; [16],184 MFI
same,fluorescence intensity,[11]; [17],26 MFI
same,fluorescence intensity,[11]; [18],23.5 MFI
same,fluorescence intensity,[11]; [19],27 MFI
same,fluorescence intensity,[11]; [20],26.5 MFI
same,fluorescence intensity,[11]; [13],25.5 MFI
same,fluorescence intensity,[11]; [14],28.5 MFI
same,fluorescence intensity,[11]; [15],36 MFI
same,fluorescence intensity,[11]; [16],47.8 MFI
same,fluorescence intensity,[12]; [17],19 MFI
same,fluorescence intensity,[12]; [18],20.2 MFI
same,fluorescence intensity,[12]; [19],19.5 MFI
same,fluorescence intensity,[12]; [20],18 MFI
same,fluorescence intensity,[12]; [13],20.5 MFI
same,fluorescence intensity,[12]; [14],20.8 MFI

# Shown tab-delimited: part of the list above
binder	measurement	setting	value
B1	fluorescence intensity	[5]; [20]	31 MFI
same	fluorescence intensity	[7]; [13]	22.5 MFI
same	fluorescence intensity	[9]; [19]	29 MFI
same	fluorescence intensity	[9]; [20]	29 MFI
same	fluorescence intensity	[12]; [20]	18 MFI

# Two entries from above, bar-delimited:
binder | measurement | setting | value
B1 | fluorescence intensity | [4]; [13] | 27 MFI
same | fluorescence intensity | [4]; [16] | 38.5 MFI
